What was measured:
ITK = ITK (Homo sapiens, UniProt Q08881); experiment: biochemical; details: read-out: % enzyme activity, 1 μM; Run 1, Run 2
MEK1 = MEK1 (Homo sapiens, UniProt Q02750); details: 1 μM; Run 1, Run 2
CDK14/cyclin Y (PFTK1) = CDK14/cyclin Y (PFTK1) (Homo sapiens, UniProt O94921); details: 1 μM; Run 1, Run 2
PLK2 = PLK2 (Homo sapiens, UniProt Q9NYY3); experiment: biochemical; details: read-out: % enzyme activity, 1 μM; Run 1, Run 2
CAMK4 = CAMK4 (Homo sapiens, UniProt Q16566); details: 1 μM; Run 1, Run 2
CAMKK1 = CAMKK1 (Homo sapiens, UniProt Q8N5S9); details: 1 μM; Run 1, Run 2
MAST3 = MAST3 (Homo sapiens, UniProt O60307); details: 1 μM; Run 1, Run 2
TAK1 = TAK1 (Homo sapiens, UniProt O43318); experiment: biochemical; details: read-out: % enzyme activity, 1 μM; Run 1, Run 2
Aurora C = Aurora C (Homo sapiens, UniProt Q9UQB9); experiment: biochemical; details: read-out: % enzyme activity, 1 μM; Run 1, Run 2
PKN2/PRK2 = PKN2/PRK2 (Homo sapiens, UniProt Q16513); details: 1 μM; Run 1, Run 2
EPHB2 = EPHB2 (Homo sapiens, UniProt P29323); experiment: biochemical; details: read-out: % enzyme activity, 1 μM; Run 1, Run 2
PKG2/PRKG2 = PKG2/PRKG2 (Homo sapiens, UniProt Q13237); details: 1 μM; Run 1, Run 2
MAPKAPK2 [1] = target: T1, MAPKAPK2 (Homo sapiens, UniProt P49137); details: 1 μM; Run 1, Run 2
TSSK2 = TSSK2 (Homo sapiens, UniProt Q96PF2); details: 1 μM; Run 1, Run 2
JAK3 = JAK3 (Homo sapiens, UniProt P52333); details: 1 μM; Run 1, Run 2
NEK7 = NEK7 (Homo sapiens, UniProt Q8TDX7); experiment: biochemical; details: read-out: % enzyme activity, 1 μM; Run 1, Run 2
STK38L/NDR2 = STK38L/NDR2 (Homo sapiens, UniProt Q9Y2H1); details: 1 μM; Run 1, Run 2
TIE2/TEK = TIE2/TEK (Homo sapiens, UniProt Q02763); experiment: biochemical; details: read-out: % enzyme activity, 1 μM; Run 1, Run 2
GRK1 = GRK1 (Homo sapiens, UniProt Q15835); details: 1 μM; Run 1, Run 2
CK1a1L = CK1a1L (Homo sapiens, UniProt Q8N752); experiment: biochemical; details: read-out: % enzyme activity, 1 μM; Run 1, Run 2
STK39/STLK3 = STK39/STLK3 (Homo sapiens, UniProt Q9UEW8); details: 1 μM; Run 1, Run 2
WNK3 = WNK3 (Homo sapiens, UniProt Q9BYP7); experiment: biochemical; details: read-out: % enzyme activity, 1 μM; Run 1, Run 2
ACK1 = ACK1 (Homo sapiens, UniProt Q07912); details: 1 μM; Run 1, Run 2
CK1d = CK1d (Homo sapiens, UniProt P48730); details: 1 μM; Run 1, Run 2
MAPKAPK2 [2] = target: T1, MAPKAPK2; experiment: biochemical; details: read-out: % enzyme activity, 1 μM; Run 1, Run 2
TRKB = TRKB (Homo sapiens, UniProt Q16620); details: 1 μM; Run 1, Run 2
PKCg = PKCg (Homo sapiens, UniProt P05129); experiment: biochemical; details: read-out: % enzyme activity, 1 μM; Run 1, Run 2
MKK7 [3] = target: T2, MKK7 (Homo sapiens, UniProt O14733); experiment: biochemical; details: read-out: % enzyme activity, 1 μM; Run 1, Run 2
JNK2 = JNK2 (Homo sapiens, UniProt P45984); experiment: biochemical; details: read-out: % enzyme activity, 1 μM; Run 1, Run 2
NEK2 = NEK2 (Homo sapiens, UniProt P51955); experiment: biochemical; details: read-out: % enzyme activity, 1 μM; Run 1, Run 2
SLK/STK2 = SLK/STK2 (Homo sapiens, UniProt Q9H2G2); details: 1 μM; Run 1, Run 2
CDK19/cyclin C = CDK19/cyclin C (Homo sapiens, UniProt Q9BWU1); details: 1 μM; Run 1, Run 2
MKK7 [4] = target: T2, MKK7; details: 1 μM; Run 1, Run 2
STK16 = STK16 (Homo sapiens, UniProt O75716); experiment: biochemical; details: read-out: % enzyme activity, 1 μM; Run 1, Run 2
CAMK2g = CAMK2g (Homo sapiens, UniProt Q13555); experiment: biochemical; details: read-out: % enzyme activity, 1 μM; Run 1, Run 2
TEC = TEC (Homo sapiens, UniProt P42680); experiment: biochemical; details: read-out: % enzyme activity, 1 μM; Run 1, Run 2
ERN2/IRE2 = ERN2/IRE2 (Homo sapiens, UniProt Q76MJ5); experiment: biochemical; details: read-out: % enzyme activity, 1 μM; Run 1, Run 2
NEK3 = NEK3 (Homo sapiens, UniProt P51956); experiment: biochemical; details: read-out: % enzyme activity, 1 μM; Run 1, Run 2
MLCK2/MYLK2 = MLCK2/MYLK2 (Homo sapiens, UniProt Q9H1R3); experiment: biochemical; details: read-out: % enzyme activity, 1 μM; Run 1, Run 2
MEK2 = MEK2 (Homo sapiens, UniProt P36507); details: 1 μM; Run 1, Run 2
MSSK1/STK23 = MSSK1/STK23 (Homo sapiens, UniProt Q9UPE1); experiment: biochemical; details: read-out: % enzyme activity, 1 μM; Run 1, Run 2
SGK3/SGKL = SGK3/SGKL (Homo sapiens, UniProt Q96BR1); details: 1 μM; Run 1, Run 2
LATS1 = LATS1 (Homo sapiens, UniProt O95835); details: 1 μM; Run 1, Run 2

Sequences of proteins named here, by UniProt entry; tags and fusion partners are left off. A change or cut given only in a name is not applied to a line headed by its entry. Residues count along the entry.
UniProt Q08881: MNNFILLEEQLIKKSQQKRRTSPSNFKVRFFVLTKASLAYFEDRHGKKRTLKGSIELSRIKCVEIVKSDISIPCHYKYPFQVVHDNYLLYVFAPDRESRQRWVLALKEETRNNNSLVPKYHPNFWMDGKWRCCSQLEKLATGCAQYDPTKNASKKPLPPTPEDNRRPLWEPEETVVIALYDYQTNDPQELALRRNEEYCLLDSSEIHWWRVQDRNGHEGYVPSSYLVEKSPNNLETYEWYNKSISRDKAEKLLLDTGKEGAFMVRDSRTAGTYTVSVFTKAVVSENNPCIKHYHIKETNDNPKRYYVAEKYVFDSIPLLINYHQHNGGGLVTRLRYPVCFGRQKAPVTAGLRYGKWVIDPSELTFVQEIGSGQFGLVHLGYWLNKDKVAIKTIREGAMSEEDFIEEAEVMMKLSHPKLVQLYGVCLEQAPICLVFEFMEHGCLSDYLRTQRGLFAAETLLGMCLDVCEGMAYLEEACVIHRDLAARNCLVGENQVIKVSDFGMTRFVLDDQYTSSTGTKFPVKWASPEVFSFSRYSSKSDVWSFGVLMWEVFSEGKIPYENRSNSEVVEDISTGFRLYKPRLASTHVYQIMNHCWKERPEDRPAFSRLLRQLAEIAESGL
UniProt O94921: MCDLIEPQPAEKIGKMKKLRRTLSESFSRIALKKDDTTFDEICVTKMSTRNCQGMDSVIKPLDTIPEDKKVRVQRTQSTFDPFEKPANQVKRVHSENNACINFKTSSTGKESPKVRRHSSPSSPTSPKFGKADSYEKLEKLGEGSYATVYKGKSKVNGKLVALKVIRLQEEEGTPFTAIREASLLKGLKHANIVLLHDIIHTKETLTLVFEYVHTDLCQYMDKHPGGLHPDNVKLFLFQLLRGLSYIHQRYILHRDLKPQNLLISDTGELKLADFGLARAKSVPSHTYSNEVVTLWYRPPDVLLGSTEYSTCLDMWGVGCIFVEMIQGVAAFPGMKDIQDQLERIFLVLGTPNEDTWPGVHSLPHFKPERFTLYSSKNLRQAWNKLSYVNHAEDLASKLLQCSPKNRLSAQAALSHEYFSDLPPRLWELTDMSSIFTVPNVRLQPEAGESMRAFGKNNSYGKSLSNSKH
UniProt O60307: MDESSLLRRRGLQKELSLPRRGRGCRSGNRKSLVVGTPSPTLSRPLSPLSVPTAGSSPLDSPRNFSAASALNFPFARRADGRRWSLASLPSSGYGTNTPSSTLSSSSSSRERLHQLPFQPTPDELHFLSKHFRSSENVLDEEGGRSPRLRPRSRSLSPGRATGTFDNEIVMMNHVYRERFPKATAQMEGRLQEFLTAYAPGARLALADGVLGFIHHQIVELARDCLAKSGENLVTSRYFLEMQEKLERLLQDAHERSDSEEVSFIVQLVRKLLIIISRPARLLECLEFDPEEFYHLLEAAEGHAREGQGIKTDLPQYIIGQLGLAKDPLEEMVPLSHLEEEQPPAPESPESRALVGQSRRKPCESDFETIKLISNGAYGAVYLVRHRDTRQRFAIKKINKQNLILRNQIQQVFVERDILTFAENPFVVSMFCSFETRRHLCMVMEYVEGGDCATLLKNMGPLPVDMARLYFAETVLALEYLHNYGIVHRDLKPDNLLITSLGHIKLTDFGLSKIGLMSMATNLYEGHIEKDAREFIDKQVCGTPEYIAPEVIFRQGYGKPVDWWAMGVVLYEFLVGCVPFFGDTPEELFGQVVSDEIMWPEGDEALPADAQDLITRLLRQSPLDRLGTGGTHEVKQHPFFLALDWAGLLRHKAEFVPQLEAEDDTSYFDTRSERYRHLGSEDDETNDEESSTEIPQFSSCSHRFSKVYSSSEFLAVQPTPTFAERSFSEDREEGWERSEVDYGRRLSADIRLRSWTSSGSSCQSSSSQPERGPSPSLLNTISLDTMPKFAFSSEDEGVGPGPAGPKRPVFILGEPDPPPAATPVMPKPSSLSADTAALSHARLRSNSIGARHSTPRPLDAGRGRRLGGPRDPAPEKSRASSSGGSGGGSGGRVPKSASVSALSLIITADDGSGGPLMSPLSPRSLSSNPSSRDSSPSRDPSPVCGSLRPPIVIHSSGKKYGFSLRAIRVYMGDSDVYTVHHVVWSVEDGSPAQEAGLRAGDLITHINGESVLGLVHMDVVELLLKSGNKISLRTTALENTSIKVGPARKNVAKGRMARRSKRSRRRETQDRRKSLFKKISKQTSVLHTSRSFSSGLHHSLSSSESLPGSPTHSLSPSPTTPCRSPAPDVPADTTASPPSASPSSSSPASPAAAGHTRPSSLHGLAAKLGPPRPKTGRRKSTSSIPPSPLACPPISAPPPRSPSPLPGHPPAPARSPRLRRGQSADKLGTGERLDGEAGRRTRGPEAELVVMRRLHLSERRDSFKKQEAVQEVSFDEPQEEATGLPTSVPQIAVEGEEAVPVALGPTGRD
UniProt P49137, whole entry: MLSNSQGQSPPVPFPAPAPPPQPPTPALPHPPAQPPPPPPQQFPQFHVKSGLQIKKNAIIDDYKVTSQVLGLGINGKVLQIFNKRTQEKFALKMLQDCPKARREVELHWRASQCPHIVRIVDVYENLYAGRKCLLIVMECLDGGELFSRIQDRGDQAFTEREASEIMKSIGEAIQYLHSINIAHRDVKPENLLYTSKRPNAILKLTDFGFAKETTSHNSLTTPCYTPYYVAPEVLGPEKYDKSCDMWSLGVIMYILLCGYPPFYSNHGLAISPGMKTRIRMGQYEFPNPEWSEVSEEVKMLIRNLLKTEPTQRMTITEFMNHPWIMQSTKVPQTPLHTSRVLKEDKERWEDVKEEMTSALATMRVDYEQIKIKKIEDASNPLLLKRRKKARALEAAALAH
UniProt Q02763, 23-1124: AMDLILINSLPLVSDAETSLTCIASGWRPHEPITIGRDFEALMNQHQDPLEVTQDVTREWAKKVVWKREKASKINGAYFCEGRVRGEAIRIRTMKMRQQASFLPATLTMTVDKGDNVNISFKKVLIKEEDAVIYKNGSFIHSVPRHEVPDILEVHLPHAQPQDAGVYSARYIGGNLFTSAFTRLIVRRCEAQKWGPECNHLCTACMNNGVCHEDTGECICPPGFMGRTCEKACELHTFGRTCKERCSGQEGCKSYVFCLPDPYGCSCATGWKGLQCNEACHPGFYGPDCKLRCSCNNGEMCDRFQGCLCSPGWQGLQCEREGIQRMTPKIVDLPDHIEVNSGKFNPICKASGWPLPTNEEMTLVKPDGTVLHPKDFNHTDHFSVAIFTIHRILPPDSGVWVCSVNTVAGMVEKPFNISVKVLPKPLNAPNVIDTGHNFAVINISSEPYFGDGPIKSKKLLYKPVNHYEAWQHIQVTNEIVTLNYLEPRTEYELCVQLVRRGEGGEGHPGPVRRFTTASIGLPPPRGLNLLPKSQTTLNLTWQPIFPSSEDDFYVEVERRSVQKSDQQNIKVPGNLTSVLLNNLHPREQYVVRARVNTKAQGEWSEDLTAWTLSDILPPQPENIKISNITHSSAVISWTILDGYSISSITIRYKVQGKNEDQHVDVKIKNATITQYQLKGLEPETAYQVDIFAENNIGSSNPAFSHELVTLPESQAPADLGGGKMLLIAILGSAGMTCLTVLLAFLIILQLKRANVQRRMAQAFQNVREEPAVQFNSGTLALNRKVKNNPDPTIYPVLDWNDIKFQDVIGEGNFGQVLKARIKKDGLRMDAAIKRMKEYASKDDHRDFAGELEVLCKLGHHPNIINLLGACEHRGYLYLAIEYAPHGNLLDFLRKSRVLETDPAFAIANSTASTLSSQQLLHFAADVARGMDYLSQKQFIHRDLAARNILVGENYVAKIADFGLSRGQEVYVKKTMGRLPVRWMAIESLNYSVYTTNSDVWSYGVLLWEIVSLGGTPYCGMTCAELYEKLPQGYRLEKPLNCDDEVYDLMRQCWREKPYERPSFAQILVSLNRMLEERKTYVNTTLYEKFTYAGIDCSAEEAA
UniProt Q9BYP7, whole entry, species assumed: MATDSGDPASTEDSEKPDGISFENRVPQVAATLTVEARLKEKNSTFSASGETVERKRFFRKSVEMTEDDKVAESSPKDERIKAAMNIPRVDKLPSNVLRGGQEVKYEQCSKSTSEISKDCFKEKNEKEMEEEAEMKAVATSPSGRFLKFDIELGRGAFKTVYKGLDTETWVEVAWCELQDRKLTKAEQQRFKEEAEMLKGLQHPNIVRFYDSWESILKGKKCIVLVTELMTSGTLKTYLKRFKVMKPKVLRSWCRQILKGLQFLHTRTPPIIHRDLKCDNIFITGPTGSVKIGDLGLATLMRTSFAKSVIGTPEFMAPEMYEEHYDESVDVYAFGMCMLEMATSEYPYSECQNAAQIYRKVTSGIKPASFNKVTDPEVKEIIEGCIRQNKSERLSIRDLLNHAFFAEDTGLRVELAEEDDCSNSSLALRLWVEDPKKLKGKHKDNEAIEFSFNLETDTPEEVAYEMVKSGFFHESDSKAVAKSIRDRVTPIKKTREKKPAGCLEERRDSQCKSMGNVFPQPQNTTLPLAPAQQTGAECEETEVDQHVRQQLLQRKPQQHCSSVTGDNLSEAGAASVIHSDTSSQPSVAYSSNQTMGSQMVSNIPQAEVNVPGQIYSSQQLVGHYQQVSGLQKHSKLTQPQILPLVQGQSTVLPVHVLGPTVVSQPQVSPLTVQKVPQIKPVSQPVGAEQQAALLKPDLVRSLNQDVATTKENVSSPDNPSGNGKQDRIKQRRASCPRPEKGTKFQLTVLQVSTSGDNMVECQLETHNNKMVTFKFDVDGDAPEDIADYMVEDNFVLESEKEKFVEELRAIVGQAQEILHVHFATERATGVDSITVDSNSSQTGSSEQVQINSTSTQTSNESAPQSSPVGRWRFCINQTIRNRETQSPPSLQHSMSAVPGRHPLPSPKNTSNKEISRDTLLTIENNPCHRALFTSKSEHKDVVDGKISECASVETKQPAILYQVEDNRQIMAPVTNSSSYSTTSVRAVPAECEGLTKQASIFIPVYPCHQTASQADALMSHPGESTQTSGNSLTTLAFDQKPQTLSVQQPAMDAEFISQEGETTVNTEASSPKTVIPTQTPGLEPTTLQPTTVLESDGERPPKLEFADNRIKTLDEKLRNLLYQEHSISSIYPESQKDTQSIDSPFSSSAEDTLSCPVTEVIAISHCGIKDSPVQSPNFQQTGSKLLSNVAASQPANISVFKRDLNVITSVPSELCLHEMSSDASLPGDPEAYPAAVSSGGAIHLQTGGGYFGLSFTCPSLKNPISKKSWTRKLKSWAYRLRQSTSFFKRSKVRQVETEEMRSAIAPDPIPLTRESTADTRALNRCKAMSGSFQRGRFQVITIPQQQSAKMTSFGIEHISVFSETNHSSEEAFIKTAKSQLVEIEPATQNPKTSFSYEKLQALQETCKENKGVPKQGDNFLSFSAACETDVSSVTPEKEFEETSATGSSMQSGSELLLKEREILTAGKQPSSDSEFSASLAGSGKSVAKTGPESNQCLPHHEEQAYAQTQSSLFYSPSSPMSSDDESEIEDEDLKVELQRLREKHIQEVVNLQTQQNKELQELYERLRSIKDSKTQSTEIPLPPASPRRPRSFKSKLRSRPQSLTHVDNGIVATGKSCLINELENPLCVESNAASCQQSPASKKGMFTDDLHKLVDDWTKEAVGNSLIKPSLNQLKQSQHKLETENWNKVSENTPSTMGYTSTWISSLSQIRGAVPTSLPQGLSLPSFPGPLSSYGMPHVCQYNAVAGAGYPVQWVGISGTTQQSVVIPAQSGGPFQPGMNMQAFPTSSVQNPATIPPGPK
UniProt Q76MJ5, 35-926: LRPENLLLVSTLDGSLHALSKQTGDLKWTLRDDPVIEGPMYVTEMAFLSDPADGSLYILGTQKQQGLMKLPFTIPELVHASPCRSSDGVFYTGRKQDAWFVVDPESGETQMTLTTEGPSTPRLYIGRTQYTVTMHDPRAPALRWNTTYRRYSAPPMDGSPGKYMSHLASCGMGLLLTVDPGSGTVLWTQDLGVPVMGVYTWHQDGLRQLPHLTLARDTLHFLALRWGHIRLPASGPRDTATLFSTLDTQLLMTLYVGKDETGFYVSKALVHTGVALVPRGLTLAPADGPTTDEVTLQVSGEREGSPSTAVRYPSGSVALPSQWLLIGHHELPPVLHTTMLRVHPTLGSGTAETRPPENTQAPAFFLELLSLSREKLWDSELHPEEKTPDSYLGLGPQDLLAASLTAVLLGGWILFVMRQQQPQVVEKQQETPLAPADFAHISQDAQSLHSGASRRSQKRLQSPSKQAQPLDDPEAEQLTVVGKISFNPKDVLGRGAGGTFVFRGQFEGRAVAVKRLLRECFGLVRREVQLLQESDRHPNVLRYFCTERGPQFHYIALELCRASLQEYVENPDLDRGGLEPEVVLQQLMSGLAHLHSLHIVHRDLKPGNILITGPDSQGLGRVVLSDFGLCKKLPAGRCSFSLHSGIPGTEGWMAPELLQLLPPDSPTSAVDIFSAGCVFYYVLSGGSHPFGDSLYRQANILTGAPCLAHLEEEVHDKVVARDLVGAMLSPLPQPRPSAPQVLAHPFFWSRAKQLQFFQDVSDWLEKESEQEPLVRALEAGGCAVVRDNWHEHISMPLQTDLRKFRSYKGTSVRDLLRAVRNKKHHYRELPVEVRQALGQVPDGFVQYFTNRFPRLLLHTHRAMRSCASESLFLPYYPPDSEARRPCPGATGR

Structure (SMILES): COc1cc(-c2cncc(-c3ccc(N4CCN(C(C)C)CC4)cc3)c2C)cc(F)c1C(N)=O [Compound 26b, 2-Fluoro-4-(5-(4-(4-isopropylpiperazin-1-yl)phenyl)-4-methylpyridin-3-yl)-6-methoxybenzamide]
- remaining activity at 1 µM (ITK): 99.5%
- % enzyme activity (MEK1): 102.97%
- % enzyme activity (CDK14/cyclin Y (PFTK1)): 97.41%
- remaining activity at 1 µM (PLK2): 93.6%
- % enzyme activity (CAMK4): 101.77%
- % enzyme activity (CAMKK1): 88.83%
- % enzyme activity (MAST3): 97.29%
- remaining activity at 1 µM (TAK1): 98.7%
- remaining activity at 1 µM (Aurora C): 101%
- % enzyme activity (PKN2/PRK2): 100.36%
- remaining activity at 1 µM (EPHB2): 96.2%
- % enzyme activity (PKG2/PRKG2): 91.81%
- % enzyme activity (MAPKAPK2 [1]): 98.48%
- % enzyme activity (TSSK2): 102.75%
- % enzyme activity (JAK3): 101.59%
- remaining activity at 1 µM (NEK7): 96.8%
- % enzyme activity (STK38L/NDR2): 93.58%
- remaining activity at 1 µM (TIE2/TEK): 93.1%
- % enzyme activity (GRK1): 93.08%
- remaining activity at 1 µM (CK1a1L): 104%
- % enzyme activity (STK39/STLK3): 94.07%
- remaining activity at 1 µM (WNK3): 92.1%
- % enzyme activity (ACK1): 61.59%
- % enzyme activity (CK1d): 99.03%
- remaining activity at 1 µM (MAPKAPK2 [2]): 99.9%
- % enzyme activity (TRKB): 105.99%
- remaining activity at 1 µM (PKCg): 98.3%
- remaining activity at 1 µM (MKK7 [3]): 100%
- remaining activity at 1 µM (JNK2): 91.3%
- remaining activity at 1 µM (NEK2): 93%
- % enzyme activity (SLK/STK2): 104.60%
- % enzyme activity (CDK19/cyclin C): 82.07%
- % enzyme activity (MKK7 [4]): 98.52%
- remaining activity at 1 µM (STK16): 102%
- remaining activity at 1 µM (CAMK2g): 96.3%
- remaining activity at 1 µM (TEC): 128%
- remaining activity at 1 µM (ERN2/IRE2): 104%
- remaining activity at 1 µM (NEK3): 96.1%
- remaining activity at 1 µM (MLCK2/MYLK2): 82.3%
- % enzyme activity (MEK2): 89.42%
- remaining activity at 1 µM (MSSK1/STK23): 98.2%
- % enzyme activity (SGK3/SGKL): 83.45%
- % enzyme activity (LATS1): 99.48%

— publication PMC8213057, “Targeting ALK2: An Open Science Approach to Developing Therapeutics for the Treatment of Diffuse Intrinsic Pontine Glioma” (Journal of Medicinal Chemistry, 2020)
